Results deposited as PubChem BioAssay AID1259254 (NCATS, 2017).
The deposit covers about 59,000 reagents; below is an unselected part. About 1,550 of all reagents (2.6%) were called active. 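G2 share is only a proxy for re-replication; each gene was hit by three separate siRNAs, and active genes were retested.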 The numbers tell different reagents against one gene apart. Not all columns of the deposit are shown. The record does not give: the amount of reagent.

- Aim: 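Finding genes that stop cells copying their DNA twice in one cycle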 (primary screen)
- System: human HCT116 colorectal cancer cells
- Reagents: single siRNA against human genes
- Time to read-out: 3 days
- Measured: 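Nuclei stained with Hoechst and imaged; cell-cycle phase assigned by DNA content; G2 share scaled per plate, non-targeting siRNA 0%, GMNN siRNA 100%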
- Direction: G2 robust z-score: higher = more G2 cells, more excess DNA replication
- Active means: 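Active siRNAs have a G2 robust z of 5 or more median absolute deviations over the median, which in these data means about 38% or higher of GMNN control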

target | siRNA no. | G2 robust z-score | Outcome
DNASE1L2 (GeneID 1775) | 1 | 0.688 | inactive
DNASE1L2 (GeneID 1775) | 2 | -1.12 | inactive
DNASE1L2 (GeneID 1775) | 3 | -0.837 | inactive
LRTM3 (GeneID 643677) | 1 | 0.903 | inactive
LRTM3 (GeneID 643677) | 2 | -0.0839 | inactive
LRTM3 (GeneID 643677) | 3 | 0.263 | inactive
LRTM3 (GeneID 643677) | 4 | 0.388 | inactive
LRTM3 (GeneID 643677) | 5 | 0.0729 | inactive
LRTM3 (GeneID 643677) | 6 | 1.08 | inactive
MEGF6 (GeneID 1953) | 1 | 3.09 | inactive
MEGF6 (GeneID 1953) | 2 | 1.93 | inactive
MEGF6 (GeneID 1953) | 3 | 1.43 | inactive
WBP2NL (GeneID 164684) | 1 | -0.0692 | inactive
WBP2NL (GeneID 164684) | 2 | 0.215 | inactive
WBP2NL (GeneID 164684) | 3 | -0.499 | inactive
CMC1 (GeneID 152100) | 1 | 1.07 | inactive
CMC1 (GeneID 152100) | 2 | -1.09 | inactive
CMC1 (GeneID 152100) | 3 | 0.159 | inactive
EPB41L2 (GeneID 2037) | 1 | 1.8 | inactive
EPB41L2 (GeneID 2037) | 2 | 2.11 | inactive
EPB41L2 (GeneID 2037) | 3 | 1.46 | inactive
SH2D2A (GeneID 9047) | 1 | 2.4 | inactive
SH2D2A (GeneID 9047) | 2 | -0.0347 | inactive
SH2D2A (GeneID 9047) | 3 | -0.341 | inactive
PRR16 (GeneID 51334) | 1 | 0.732 | inactive
PRR16 (GeneID 51334) | 2 | 4.83 | inactive
PRR16 (GeneID 51334) | 3 | -0.654 | inactive
THAP6 (GeneID 152815) | 1 | -0.772 | inactive
THAP6 (GeneID 152815) | 2 | -0.485 | inactive
THAP6 (GeneID 152815) | 3 | -0.0292 | inactive
CAPZBP1 (GeneID 644265) | 1 | -0.572 | inactive
CAPZBP1 (GeneID 644265) | 2 | 0.552 | inactive
CAPZBP1 (GeneID 644265) | 3 | -1.21 | inactive
WNT8A (GeneID 7478) | 1 | 1.06 | inactive
WNT8A (GeneID 7478) | 2 | -0.438 | inactive
WNT8A (GeneID 7478) | 3 | -0.00054 | inactive
PASK (GeneID 23178) | 1 | 1.22 | inactive
PASK (GeneID 23178) | 2 | 0.0173 | inactive
PASK (GeneID 23178) | 3 | -0.366 | inactive
MMP7 (GeneID 4316) | 1 | 1.77 | inactive
MMP7 (GeneID 4316) | 2 | 1.56 | inactive
MMP7 (GeneID 4316) | 3 | -1.08 | inactive
ZNF747 (GeneID 65988) | 1 | -1.04 | inactive
ZNF747 (GeneID 65988) | 2 | -0.593 | inactive
ZNF747 (GeneID 65988) | 3 | -1.66 | inactive
MINDY4 (GeneID 84182) | 1 | 1.58 | inactive
MINDY4 (GeneID 84182) | 2 | -1.01 | inactive
MINDY4 (GeneID 84182) | 3 | 0.741 | inactive

4 consecutive entries already listed:
target | siRNA no. | G2 robust z-score | Outcome
DNASE1L2 (GeneID 1775) | 1 | 0.688 | inactive
DNASE1L2 (GeneID 1775) | 2 | -1.12 | inactive
DNASE1L2 (GeneID 1775) | 3 | -0.837 | inactive
LRTM3 (GeneID 643677) | 1 | 0.903 | inactive
